Values of other authors in patent US20110015134A1, “Method of treatment for early stage cancer” (priority 2007, published 2011).
For at least one compound, name, drawing or mass did not settle the structure.

System: wound healing associated tumor growth
Settings: reported in the literature

Structure (SMILES): Cc1ccc(-c2cc(C(F)(F)F)nn2-c2ccc(S(N)(=O)=O)cc2)cc1 [Celecoxib]
- prevention of wound healing associated / surgery induced tumor growth: effective in preventing wound healing associated tumor growth
